Out of some 340,000 compounds screened, about 6,200 (1.8%) were called active. Inconclusive results, whose numbers are uncertain, are shown with a selection of clear calls. Calls follow the shape of the dose curve; as a rule, active = well fitted activation curve with a large enough effect; inconclusive = small, poorly fitted or top-dose-only effect; inactive = no such curve, though single readings can be large or run the other way. Potencies of inconclusive entries are doubtful fits and often do not repeat.
Assay: A quantitative high throughput screen for small molecules that induce DNA re-replication in SW480 colon adenocarcinoma cells. Also: nearly all actives have a fitted effect of over 55% in size. As to re-replication activation: % of control where 0% means no effect.
Conditions: Hoechst DNA content imaging, 48 h; re-replication activation: at 46.1 µM (top of the series) unless noted
Procedure, shortened: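 250 cells/well; 23 nL cpd via pin tool; 48 hr, 37 C, 5% CO2; Hoechst 40 min; imager read of total nuclear intensity, ex 405/em 500-530 nm.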
Potency is read from the fitted curve at half-maximal effect.

Structure (SMILES) | re-replication activation | Potency
CC(=O)c1cccc(NC(=S)N2CCCC2)c1 | inconclusive: -30.2% [activator] | 
CCCCc1cc(=O)oc2cc(OC3CCCCC3=O)ccc12 (stereo not drawn) |  | inconclusive: 3.26 µM [activator, single point]
O=[N+]([O-])c1ccc(O)c(N=Cc2sc3ccccc3c2O)c1 |  | inconclusive: 20.6 µM [activator, partial curve, poor fit]
CCOCCCNC(=O)/C(C#N)=C/c1ccc([N+](=O)[O-])o1 |  | inconclusive: 5.8 µM [activator, partial curve]
O=C(NCc1ccc2c(c1)OCO2)c1cc(-c2cc(Cl)ccc2O)n[nH]1 |  | inconclusive: 29.1 µM [activator, single point]
COc1ccc(Cl)cc1NS(=O)(=O)c1cccc(C(=O)NC2CCN(Cc3ccccc3)CC2)c1 |  | inconclusive: 18.4 µM [activator, single point]
Cc1ccsc1/C=N/NC(=O)c1cccc(S(=O)(=O)Nc2ccccc2Cl)c1 | inactive: -3.16% | 
O=C(Nc1ccc2c(c1)CCC2)c1ncoc1-c1ccccc1F |  | inconclusive: 23.1 µM [activator, partial curve, poor fit]
Cc1ccc(C(=O)CSC2=C(C#N)C(c3ccco3)C3=C(CC(C)(C)CC3=O)N2)cc1 (stereo not drawn) |  | inconclusive: 0.461 µM [activator, full curve, poor fit]
CCN(CC1COc2ccccc2O1)C(=S)Nc1ccc(F)cc1 (stereo not drawn) |  | inconclusive: 1.46 µM [activator, full curve, poor fit]
O=C(Nc1ccccn1)C1CCN(S(=O)(=O)c2cccs2)CC1 | inactive: -7.9% | 
CNC(=S)N/N=C1\C(=O)c2cccc3cccc1c23 |  | inconclusive: 29.1 µM [activator, single point]
COc1ccc(/C=N/NC(=O)c2ccccc2OC)cc1COc1ccccc1[N+](=O)[O-] |  | inconclusive: 20.6 µM [activator, single point]
COc1ccc(NC(=S)NNC(=O)CCn2cc([N+](=O)[O-])cn2)cc1 | inactive: -7.38% | 
CC1CCc2sc(C(=O)OCC(=O)NCc3ccccc3)cc2C1 (stereo not drawn) |  | inconclusive: 25.9 µM [activator, single point]
O=C(Nc1ccc(Br)cn1)c1coc(=O)c(Br)c1 |  | inconclusive: 14.6 µM [activator, partial curve, poor fit]
Cc1nc(Nc2cccc(O)c2)c2c3c(sc2n1)CCC3 |  | inconclusive: 0.291 µM [activator, partial curve, poor fit]
O=C(NCCc1ccccc1)NC(Cc1ccccc1)C(=O)O (stereo not drawn) |  | inconclusive: 20 µM [activator, single point]
CN1CC(c2ccc(Cl)c(Cl)c2)[C@@]2(COc3ccccc3C2=O)[C@@]12C(=O)Nc1ccccc12 (stereo partly drawn) |  | inconclusive: 18.4 µM [activator, single point]
CN(C)c1nc(-c2cccs2)cc(C(F)(F)F)c1C#N |  | inconclusive: 23.1 µM [activator, partial curve, poor fit]
Cc1cc(=O)oc2cc(O)cc(OCc3ccccc3)c12 |  | inconclusive: 20.6 µM [activator, partial curve, poor fit]
COc1ccc(/C=C2\Sc3ccc(C(=O)N4CCCC4)cc3N(C)C2=O)cc1OC |  | active: 3.98 µM

Rewritten with tabs: 3 of the compounds above
Structure (SMILES)	re-replication activation	Potency
CC(=O)c1cccc(NC(=S)N2CCCC2)c1	inconclusive: -30.2% [activator]	
CCCCc1cc(=O)oc2cc(OC3CCCCC3=O)ccc12 (stereo not drawn)		inconclusive: 3.26 µM [activator, single point]
O=[N+]([O-])c1ccc(O)c(N=Cc2sc3ccccc3c2O)c1		inconclusive: 20.6 µM [activator, partial curve, poor fit]

Next records.

Structure (SMILES) | re-replication activation | Potency
Clc1ccc2c(c1)C(N1CCNCC1)Cc1ccccc1S2 (stereo not drawn) |  | inconclusive: 31.6 µM [activator, single point]
Cc1cc(C(=O)N2CCCC(N3CCN(c4ccc(F)cc4)CC3)C2)c(C)o1 (stereo not drawn) |  | inconclusive: 29.1 µM [activator, single point]
CCOc1cc(CNCc2cccs2)cc(Br)c1OCC |  | inconclusive: 32.6 µM [activator, partial curve, poor fit]
CN1CCN(NS(=O)(=O)c2ccc(Cl)cc2)CC1 | inactive: -5.18% | 
CN(C)c1ccc(C=NNc2nc3c([nH]2)c(=O)n(C)c(=O)n3C)cc1 |  | inconclusive: 29.1 µM [activator, single point]
CC(=O)N/C(=C\c1ccccc1)C(=O)OCc1ccccc1 | inactive: -1.96% | 
COc1ccc(N2CCN(C(=O)COC(=O)CNC(=O)c3ccc(Cl)cc3Cl)CC2)cc1 |  | inconclusive: 11.6 µM [activator, single point]
N#C/C(=C\c1ccc(Oc2ccc(C(F)(F)F)cc2[N+](=O)[O-])cc1)c1nc2ccccc2[nH]1 |  | inconclusive: 32.6 µM [activator, single point]
CCOc1ccc(C(c2c(O)nc(SC)[nH]c2=O)c2c(O)nc(SC)[nH]c2=O)cc1 | inactive: 0.573% | 
COC1=CC(=O)c2c(ccc3ncnc(N)c23)C1=O |  | inconclusive: 1.03 µM [activator, full curve]
Cc1ccc(N(C(=O)Cn2nnc(-c3cccs3)n2)C(C(=O)NC2CCCC2)c2ccncc2)cc1 (stereo not drawn) |  | inconclusive: 29.1 µM [activator, single point]
CCn1c(SCC(=O)c2ccc(Cl)cc2)nnc1-c1ccoc1C |  | inconclusive: 18.4 µM [activator, single point]
Cc1c(C(=O)N2CCN(c3ccccn3)CC2)sc2ncnc(N3CCOCC3)c12 | inactive: -3.95% | 
COc1ccc(C(=O)OCC(=O)Nc2ccc(OC)c(S(=O)(=O)N3CCCCC3)c2)cc1[N+](=O)[O-] |  | inconclusive: 18.4 µM [activator, single point]
CCOc1cc(C(=O)Nc2cc(C)ccc2OC)ccc1OCC(=O)N1CCCCC1 | inactive: -147% | 
CCCCCCCCOC(=O)c1cc([N+](=O)[O-])c(Sc2ncnc3nc[nH]c23)c([N+](=O)[O-])c1 |  | inconclusive: 11.6 µM [activator, partial curve]
CCOC(=O)c1c(NC(=O)c2cccs2)sc2c1CC(C)(C)OC2 | inactive: -7.84% | 
CCN1CCc2nc3sc(C(=O)Nc4cccnc4Cl)c(N)c3cc2C1 | inactive: -3.51% | 
O=C(COc1ccc(Cl)cc1)OCC(=O)N1CCOCC1 | inactive: 8.22% | 
CCN(C(=O)c1ccco1)C1C2CC3CC(C2)CC1C3 (stereo not drawn) |  | inconclusive: 4.11 µM [activator, full curve]
COC(=O)CCCn1nc(NC(=O)c2ccco2)cc1C |  | inconclusive: 0.366 µM [activator, full curve, poor fit]

Source: PubChem BioAssay AID624297 (National Center for Advancing Translational Sciences (NCATS), 2012)
